Results reported in patent US6469155 (UNIVERSITA DEGLI STUDI DI BOLOGNA, dated 2002).
These are yes or no findings as the source states them, for the method shown. Some results given as binding are weak or reduced against the parent protein; the word gives no strength. Sequences can lack the tags named with a protein.

Amino acid sequences for entries named in this document (tags omitted). Residues count along the entry.
UniProt Q69091, residues 26-394: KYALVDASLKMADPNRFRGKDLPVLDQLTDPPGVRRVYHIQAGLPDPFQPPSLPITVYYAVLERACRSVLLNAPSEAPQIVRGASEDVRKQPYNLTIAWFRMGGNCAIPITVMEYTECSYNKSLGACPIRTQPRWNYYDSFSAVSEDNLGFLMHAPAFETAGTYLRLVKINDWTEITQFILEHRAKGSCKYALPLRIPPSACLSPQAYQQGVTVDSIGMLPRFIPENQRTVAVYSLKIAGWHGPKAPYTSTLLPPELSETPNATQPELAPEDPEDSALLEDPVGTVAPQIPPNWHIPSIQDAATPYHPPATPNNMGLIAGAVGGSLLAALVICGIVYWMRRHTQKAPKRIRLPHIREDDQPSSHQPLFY

Target: HSV-1 glycoprotein D purified from HSV-1-infected BHK cells (herpes simplex virus 1) (UniProt Q69091)
Test: ELISA, gD immobilized (16 nM coating), detection with anti-human IgG-peroxidase

B1: sV(HIgR)-Fc (Fc fusion)
chain: QVVQVNDSMYGFIGTDVVLHCSFANPLPSVKITQVTWQKSTNGSKQNVAIYNPSMGVSVLAPYRERVEFLRPSFTDGTIRLSRLELEDEGVYICGFATFPTGNRESQLNLTVMA
notes: Made in COS1 cells and purified on protein A; also called V1-Fc; soluble V domain of HIgR/PRR1; not shown: IgG Fc (Fc portion of human IgG1) from the Cos Fc Link (CFL) vector
- binding: binds
